For three molecules, binding results are on record in publication doi:10.1101/2024.12.04.624804.

By UniProt entry, the sequences of proteins in these tests, tags left out.
UniProt O95197, whole entry: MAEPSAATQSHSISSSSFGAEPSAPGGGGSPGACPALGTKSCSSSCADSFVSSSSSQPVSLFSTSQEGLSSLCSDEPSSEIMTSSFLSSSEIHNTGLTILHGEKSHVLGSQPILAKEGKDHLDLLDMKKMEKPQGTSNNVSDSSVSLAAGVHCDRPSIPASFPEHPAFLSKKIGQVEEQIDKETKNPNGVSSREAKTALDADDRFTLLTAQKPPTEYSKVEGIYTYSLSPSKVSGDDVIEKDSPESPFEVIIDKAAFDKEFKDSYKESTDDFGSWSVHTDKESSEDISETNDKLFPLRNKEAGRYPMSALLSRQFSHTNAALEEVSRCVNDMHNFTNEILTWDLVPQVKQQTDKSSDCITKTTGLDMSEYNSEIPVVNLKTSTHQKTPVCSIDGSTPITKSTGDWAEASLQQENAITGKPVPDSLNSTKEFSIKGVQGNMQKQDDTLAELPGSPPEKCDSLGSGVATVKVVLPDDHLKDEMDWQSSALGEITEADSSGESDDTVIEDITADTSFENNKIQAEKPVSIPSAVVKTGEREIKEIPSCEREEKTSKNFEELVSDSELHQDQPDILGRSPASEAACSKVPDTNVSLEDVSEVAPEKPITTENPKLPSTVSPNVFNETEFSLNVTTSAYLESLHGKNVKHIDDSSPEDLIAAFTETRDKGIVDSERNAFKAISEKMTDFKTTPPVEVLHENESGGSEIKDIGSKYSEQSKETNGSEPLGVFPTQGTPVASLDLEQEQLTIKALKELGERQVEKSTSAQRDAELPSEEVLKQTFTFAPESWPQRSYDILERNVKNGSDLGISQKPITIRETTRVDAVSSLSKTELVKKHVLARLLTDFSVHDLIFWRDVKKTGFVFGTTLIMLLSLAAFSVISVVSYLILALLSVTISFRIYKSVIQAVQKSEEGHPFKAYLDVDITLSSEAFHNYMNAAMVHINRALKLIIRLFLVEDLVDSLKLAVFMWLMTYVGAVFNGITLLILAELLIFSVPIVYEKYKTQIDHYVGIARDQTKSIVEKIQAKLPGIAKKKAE

The target in assay [1] is Flag-tagged SARS-CoV-2 membrane protein M (SARS-CoV-2) (UniProt P0DTC5). As to the kind of experiment: co-IP.
For assay [2] the target is unchanged. As to the kind of experiment: co-IP. The source holds these as a separate data set.

Read-outs that look alike come from different tables or passages of the source. These are yes or no findings as the source states them, for the method shown. In cells and extracts the contact can be indirect. Some binding calls cover weakened binding; strength is not graded here.

Turning to RTN3 (from UniProt O95197 1-1032), the binding entry in assay [1] is reported as “binds”.

“s-tag-fused SARS-CoV-2 envelope protein E (from UniProt P0DTC4 1-75)”: the binding result in assay [1] was “binds”.

B1: NDP52 (protein, UniProt Q13137 1-446)
chain: MEETIKDPPTSAVLLDHCHFSQVIFNSVEKFYIPGGDVTCHYTFTQHFIPRRKDWIGIFRVGWKTTREYYTFMWVTLPIDLNNKSAKQQEVQFKAYYLPKDDEYYQFCYVDEDGVVRGASIPFQFRPENEEDILVVTTQGEVEEIEQHNKELCKENQELKDSCISLQKQNSDMQAELQKKQEELETLQSINKKLELKVKEQKDYWETELLQLKEQNQKMSSENEKMGIRVDQLQAQLSTQEKEMEKLVQGDQDKTEQLEQLKKENDHLFLSLTEQRKDQKKLEQTVEQMKQNETTAMKKQQELMDENFDLSKRLSENEIICNALQRQKERLEGENDLLKRENSRLLSYMGLDFNSLPYQVPTSDEGGARQNPGLAYGNPYSGIQESSSPSPLSIKKCPICKADDICDHTLEQQQMQPLCFNCPICDKIFPATEKQIFEDHVFCHSL
As to B1, the binding result in assay [2] is recorded as “binds”.
